Consider one substance from article doi:10.1101/2022.11.02.514974.

No constants are given. Whether binding was seen depends on the method and setting. Binding calls can cover weak binding; strength is not graded here.

For assay [1], the target named is T1, WhiA N-terminal domain (amino acids 1-227) (B. subtilis) (UniProt O06975).
T1 sequence: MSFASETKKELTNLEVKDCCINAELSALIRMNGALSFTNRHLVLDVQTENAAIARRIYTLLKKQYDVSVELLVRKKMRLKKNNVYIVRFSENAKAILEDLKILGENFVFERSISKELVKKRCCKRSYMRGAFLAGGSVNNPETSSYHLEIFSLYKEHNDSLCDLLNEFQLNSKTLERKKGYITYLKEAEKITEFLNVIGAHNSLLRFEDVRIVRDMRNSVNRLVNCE
The assay is described as follows: two-hybrid.

Assay [2] concerns the target T2, full length WhiA (B. subtilis) (UniProt O06975).
T2 sequence: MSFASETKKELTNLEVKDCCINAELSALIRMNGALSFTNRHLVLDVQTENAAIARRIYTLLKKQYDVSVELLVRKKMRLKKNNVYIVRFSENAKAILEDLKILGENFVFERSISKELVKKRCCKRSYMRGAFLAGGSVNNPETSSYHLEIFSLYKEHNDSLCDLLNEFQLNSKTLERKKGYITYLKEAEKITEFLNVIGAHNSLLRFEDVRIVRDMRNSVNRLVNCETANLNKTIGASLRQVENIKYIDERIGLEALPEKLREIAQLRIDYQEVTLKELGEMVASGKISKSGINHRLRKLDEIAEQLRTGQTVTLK
Nature of the assay: two-hybrid.

For YrhJ (B. subtilis), the binding entry in assay [1] and in assay [2] was “binds” in each case.
